Data as given in article PMC8455663.
These are yes or no findings as the source states them, for the method shown. Binding seen in cells or lysates may run through a third protein. Some binding calls cover weakened binding; strength is not graded here.

Amino acid sequences for entries named in this document (tags omitted). A change or cut given only in a name is not applied to a line headed by its entry. Chains listed by the source or under a name are the forms on record and can include a tag or linker. Residues count along the entry.
UniProt P10275: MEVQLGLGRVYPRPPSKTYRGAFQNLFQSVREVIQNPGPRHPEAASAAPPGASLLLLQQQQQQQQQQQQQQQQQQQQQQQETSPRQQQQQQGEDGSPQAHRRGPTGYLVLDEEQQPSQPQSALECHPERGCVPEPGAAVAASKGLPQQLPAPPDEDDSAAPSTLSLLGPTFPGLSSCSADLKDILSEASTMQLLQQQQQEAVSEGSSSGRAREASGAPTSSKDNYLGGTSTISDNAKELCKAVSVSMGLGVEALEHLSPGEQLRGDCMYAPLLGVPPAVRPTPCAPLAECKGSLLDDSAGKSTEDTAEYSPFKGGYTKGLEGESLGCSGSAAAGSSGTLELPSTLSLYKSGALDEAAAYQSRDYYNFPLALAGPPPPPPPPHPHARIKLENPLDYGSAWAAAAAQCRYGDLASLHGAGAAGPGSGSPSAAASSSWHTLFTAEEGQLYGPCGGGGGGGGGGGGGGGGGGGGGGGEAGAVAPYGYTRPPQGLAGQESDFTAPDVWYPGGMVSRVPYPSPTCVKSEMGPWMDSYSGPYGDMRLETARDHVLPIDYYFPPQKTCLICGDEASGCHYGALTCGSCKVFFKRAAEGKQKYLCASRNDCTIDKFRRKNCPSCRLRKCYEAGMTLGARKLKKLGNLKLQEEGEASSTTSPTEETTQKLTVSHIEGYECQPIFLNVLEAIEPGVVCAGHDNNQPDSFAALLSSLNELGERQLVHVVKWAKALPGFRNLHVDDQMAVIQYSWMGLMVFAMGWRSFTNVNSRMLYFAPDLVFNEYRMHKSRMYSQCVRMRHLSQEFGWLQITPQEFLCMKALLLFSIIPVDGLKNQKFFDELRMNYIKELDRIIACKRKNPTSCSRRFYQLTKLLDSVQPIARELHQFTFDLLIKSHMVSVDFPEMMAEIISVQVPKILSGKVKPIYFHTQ
Androgen receptor splice variant 7 (human (endogenous in 22Rv1)) (P10275, form named): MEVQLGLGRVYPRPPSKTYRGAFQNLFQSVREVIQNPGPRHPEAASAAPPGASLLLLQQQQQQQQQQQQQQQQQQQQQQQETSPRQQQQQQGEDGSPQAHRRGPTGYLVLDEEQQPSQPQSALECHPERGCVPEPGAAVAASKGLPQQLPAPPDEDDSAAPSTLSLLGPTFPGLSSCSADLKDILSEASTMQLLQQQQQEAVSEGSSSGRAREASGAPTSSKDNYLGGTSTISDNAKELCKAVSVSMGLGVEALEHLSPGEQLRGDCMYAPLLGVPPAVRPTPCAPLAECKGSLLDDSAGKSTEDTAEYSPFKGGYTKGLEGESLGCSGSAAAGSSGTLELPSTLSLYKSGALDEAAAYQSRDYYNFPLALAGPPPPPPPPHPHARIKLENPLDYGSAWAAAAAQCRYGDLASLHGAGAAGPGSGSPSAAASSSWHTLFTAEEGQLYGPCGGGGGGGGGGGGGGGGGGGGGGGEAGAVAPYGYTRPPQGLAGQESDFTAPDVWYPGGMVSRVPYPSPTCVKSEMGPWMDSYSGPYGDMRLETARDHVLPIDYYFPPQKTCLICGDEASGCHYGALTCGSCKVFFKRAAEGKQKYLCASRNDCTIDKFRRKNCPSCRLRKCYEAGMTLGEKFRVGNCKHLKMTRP
UniProt P11021, residues 19-654: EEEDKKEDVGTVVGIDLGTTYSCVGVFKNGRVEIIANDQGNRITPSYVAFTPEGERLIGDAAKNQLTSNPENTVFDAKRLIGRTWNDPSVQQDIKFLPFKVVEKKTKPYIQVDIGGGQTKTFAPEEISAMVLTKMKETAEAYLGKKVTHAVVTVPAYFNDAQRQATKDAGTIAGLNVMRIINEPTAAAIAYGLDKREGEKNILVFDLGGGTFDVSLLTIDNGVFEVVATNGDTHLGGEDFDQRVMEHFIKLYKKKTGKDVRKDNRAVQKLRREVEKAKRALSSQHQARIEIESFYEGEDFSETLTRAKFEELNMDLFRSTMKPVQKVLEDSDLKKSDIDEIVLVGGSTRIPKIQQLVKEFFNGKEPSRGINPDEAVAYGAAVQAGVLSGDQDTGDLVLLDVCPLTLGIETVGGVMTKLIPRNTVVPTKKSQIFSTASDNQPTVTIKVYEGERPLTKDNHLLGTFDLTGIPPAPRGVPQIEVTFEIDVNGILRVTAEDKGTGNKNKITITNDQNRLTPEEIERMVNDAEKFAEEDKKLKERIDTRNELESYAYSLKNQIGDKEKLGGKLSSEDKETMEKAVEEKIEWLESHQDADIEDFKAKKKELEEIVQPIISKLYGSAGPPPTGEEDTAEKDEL

Experiments:
[1] = molecular target: Androgen receptor splice variant 7 (human (endogenous in 22Rv1)) (UniProt P10275); experiment: co-IP; 22Rv1 cells exposed to nobiletin (doses for 12 h; 20 uM for different lengths of time); Dynabeads Co-Immunoprecipitation Kit; precipitating antibody not stated
[2] = molecular target: full-length androgen receptor (human (endogenous in 22Rv1)) (UniProt P10275); experiment: as above
[3] = molecular target: Androgen receptor splice variant 7 (human (endogenous in 22Rv1)) (UniProt P10275); experiment: as above; remark: listed apart in the source
[4] = molecular target: Androgen receptor splice variant 7 (human (endogenous in 22Rv1)) (UniProt P10275); experiment: co-IP; AR-V7 antibody on Dynabeads, 22Rv1 protein extracts, immunoblot for deubiquitinases (screen of 11 DUBs)

binding [1] | binding [2] | binding [3] | binding [4] | Molecule
binds | – | – | – | GRP78 (from UniProt P11021 19-654)
– | binds | binds | binds | ubiquitin-specific protease 22 (enzyme, UniProt Q9UPT9 1-525) MVSRPEPEGEAMDAELAVAPPGCSHLGSFKVDNWKQNLRAIYQCFVWSGTAEARKRKAKSCICHVCGVHLNRLHSCLYCVFFGCFTKKHIHEHAKAKRHNLAIDLMYGGIYCFLCQDYIYDKDMEIIAKEEQRKAWKMQGVGEKFSTWEPTKRELELLKHNPKRRKITSNCTIGLRGLINLGNTCFMNCIVQALTHTPLLRDFFLSDRHRCEMQSPSSCLVCEMSSLFQEFYSGHRSPHIPYKLLHLVWTHARHLAGYEQQDAHEFLIAALDVLHRHCKGDDNGKKANNPNHCNCIIDQIFTGGLQSDVTCQVCHGVSTTIDPFWDISLDLPGSSTPFWPLSPGSEGNVVNGESHVSGTTTLTDCLRRFTRPEHLGSSAKIKCSGCHSYQESTKQLTMKKLPIVACFHLKRFEHSAKLRRKITTYVSFPLELDMTPFMASSKESRMNGQYQQPTDSLNNDNKYSLFAVVNHQGTLESGHYTSFIRQHKDQWFKCDDAIITKASIKDVLDSEGYLLFYHKQFLEYE
